PubChem BioAssay AID1159584 – Peter MacCallum Cancer Centre | 2016

Aim: 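Genes that CDH1-null MCF10A cells selectively depend on to survive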 (primary screen)
System: human MCF10A breast epithelial cells, parental and CDH1-null
Knock-down reagent: siRNA against human genes
Measured: 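ATP luminescence (CellTiter-Glo) viability per line relative to mean mock wells over all plates, and the ratio of CDH1-null to parental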
Reading the numbers: CDH1-null / parental viability ratio: higher = CDH1-null cells survive relatively better than parental
The deposit covers about 18,000 reagents; shown is an unselected part. Further read-outs or replicates are left out here. Not stated in the record: the amount of reagent, the time to read-out.

Which result is listed for MRPS21 (mitochondrial ribosomal protein S21)?
CDH1-null / parental viability ratio: 1.43

With SOCS7 (suppressor of cytokine signaling 7), what was measured?
CDH1-null / parental viability ratio: 0.98

What did the screen give for MRPL40 (mitochondrial ribosomal protein L40)?
CDH1-null / parental viability ratio: 0.77

With MAJIN (membrane anchored junction protein), what does the deposit list?
CDH1-null / parental viability ratio: 0.78

How did the screen score DZIP1L (DAZ interacting zinc finger protein 1 like)?
CDH1-null / parental viability ratio: 0.96

What is on record for AQP11 (aquaporin 11)?
CDH1-null / parental viability ratio: 0.92

What did the screen give for STOML1 (stomatin like 1)?
CDH1-null / parental viability ratio: 0.81

For POLR1F (RNA polymerase I subunit F), how do the results read?
CDH1-null / parental viability ratio: 1.14

For TOX2 (TOX high mobility group box family member 2), what was measured?
CDH1-null / parental viability ratio: 1.01

What is on record for ZEB2 (zinc finger E-box binding homeobox 2)?
CDH1-null / parental viability ratio: 1.15

Which result is listed for BOLA1 (bolA family member 1)?
CDH1-null / parental viability ratio: 1.26

Which result is listed for PURA (purine rich element binding protein A)?
CDH1-null / parental viability ratio: 0.91

With TMCC3 (transmembrane and coiled-coil domain family 3), how do the results read?
CDH1-null / parental viability ratio: 0.91

For HES1 (hes family bHLH transcription factor 1), what does the deposit list?
CDH1-null / parental viability ratio: 0.89

What is on record for PRMT5 (protein arginine methyltransferase 5)?
CDH1-null / parental viability ratio: 1.12

What did the screen give for PCDHA10 (protocadherin alpha 10)?
CDH1-null / parental viability ratio: 1.16

With GORASP2 (golgi reassembly stacking protein 2), what does the deposit list?
CDH1-null / parental viability ratio: 1.08

With SDHD (succinate dehydrogenase complex subunit D), what does the deposit list?
CDH1-null / parental viability ratio: 1.07

With GPHN (gephyrin), how do the results read?
CDH1-null / parental viability ratio: 0.85

With AASS (aminoadipate-semialdehyde synthase), what does the deposit list?
CDH1-null / parental viability ratio: 0.66

For KCNE5, how do the results read?
CDH1-null / parental viability ratio: 1.15

For MAP3K5 (mitogen-activated protein kinase kinase kinase 5), what does the deposit list?
CDH1-null / parental viability ratio: 1.02

What did the screen give for PHB1 (prohibitin 1)?
CDH1-null / parental viability ratio: 0.94

How did the screen score DGCR8 (DGCR8 microprocessor complex subunit)?
CDH1-null / parental viability ratio: 0.61

3 entries from above, set out differently:
{"Target gene": "AQP11 (aquaporin 11)", "CDH1-null / parental viability ratio": 0.92}
{"Target gene": "STOML1 (stomatin like 1)", "CDH1-null / parental viability ratio": 0.81}
{"Target gene": "POLR1F (RNA polymerase I subunit F)", "CDH1-null / parental viability ratio": 1.14}
